Values of other authors as cited in US20110269755A1, “COMPOSITIONS AND METHODS FOR TREATING VASCULAR, AUTOIMMUNE, AND INFLAMMATORY DISEASES” (Aspreva International Ltd., priority 2006, published 2011).
For at least one compound, name, drawing or mass did not settle the structure.

Key:
[1] = tested on: IL-1β; conditions: simvastatin therapy for 8 weeks; cited from earlier work
[2] = tested on: endothelial nitric oxide synthase (eNOS); conditions: in vitro, cited from earlier work
[3] = tested on: TNF-α; conditions: simvastatin therapy for 8 weeks; cited from earlier work
[4] = tested on: mice; conditions: simvastatin 100 mg/kg/day in mice; cited from earlier work
[5] = tested on: Ldlr−/− male mice; conditions: older Ldlr−/− male mice, simvastatin monotherapy; cited from earlier work

Structure (SMILES): CCC(C)(C)C(=O)O[C@H]1C[C@@H](C)C=C2C=C[C@H](C)[C@H](CC[C@@H]3C[C@@H](O)CC(=O)O3)[C@H]21 [simvastatin]
- reduction of monocyte expression of IL-1β [1]: 35%
- upregulation of eNOS expression ([2]; cholesterol clamped conditions): almost fourfold
- downregulation of eNOS by oxidized LDL [2]: completely prevent
- reduction of monocyte expression of TNF-α [3]: 49%
- LDL cholesterol [4]: decrease
- total plasma cholesterol [4]: decrease
- atherosclerosis [5]: decreased
- triglyceride levels [5]: minor effect
